No constants are given. Whether binding was seen depends on the method and setting. Binding seen in cells or lysates may run through a third protein. Some results given as binding are weak or reduced against the parent protein; the word gives no strength.
How the values were obtained:
[1] = biological target: Scrib-Flag (flag-tagged SCRIB) (human) (UniProt Q14160); experiment: co-IP; HEK293T cells co-transfected with Scrib-Flag and AnkG270-EGFP or pEGFPN1, lysed after 48 h; immunoprecipitated by Flag antibody, blotted for GFP
[2] = biological target: AnkG270-EGFP (GFP-tagged AnkG) (UniProt O70511); experiment: co-IP; HEK293T cells co-transfected with AnkG270-EGFP and Scrib-Flag or dTomato-fused truncated Scrib, lysed after 48 h; AnkG270-EGFP immunoprecipitated by GFP antibody, blotted for Flag or mCherry

Sequences of proteins named here, by UniProt entry; tags and fusion partners are left off. A change or cut given only in a name is not applied to a line headed by its entry.
UniProt Q14160: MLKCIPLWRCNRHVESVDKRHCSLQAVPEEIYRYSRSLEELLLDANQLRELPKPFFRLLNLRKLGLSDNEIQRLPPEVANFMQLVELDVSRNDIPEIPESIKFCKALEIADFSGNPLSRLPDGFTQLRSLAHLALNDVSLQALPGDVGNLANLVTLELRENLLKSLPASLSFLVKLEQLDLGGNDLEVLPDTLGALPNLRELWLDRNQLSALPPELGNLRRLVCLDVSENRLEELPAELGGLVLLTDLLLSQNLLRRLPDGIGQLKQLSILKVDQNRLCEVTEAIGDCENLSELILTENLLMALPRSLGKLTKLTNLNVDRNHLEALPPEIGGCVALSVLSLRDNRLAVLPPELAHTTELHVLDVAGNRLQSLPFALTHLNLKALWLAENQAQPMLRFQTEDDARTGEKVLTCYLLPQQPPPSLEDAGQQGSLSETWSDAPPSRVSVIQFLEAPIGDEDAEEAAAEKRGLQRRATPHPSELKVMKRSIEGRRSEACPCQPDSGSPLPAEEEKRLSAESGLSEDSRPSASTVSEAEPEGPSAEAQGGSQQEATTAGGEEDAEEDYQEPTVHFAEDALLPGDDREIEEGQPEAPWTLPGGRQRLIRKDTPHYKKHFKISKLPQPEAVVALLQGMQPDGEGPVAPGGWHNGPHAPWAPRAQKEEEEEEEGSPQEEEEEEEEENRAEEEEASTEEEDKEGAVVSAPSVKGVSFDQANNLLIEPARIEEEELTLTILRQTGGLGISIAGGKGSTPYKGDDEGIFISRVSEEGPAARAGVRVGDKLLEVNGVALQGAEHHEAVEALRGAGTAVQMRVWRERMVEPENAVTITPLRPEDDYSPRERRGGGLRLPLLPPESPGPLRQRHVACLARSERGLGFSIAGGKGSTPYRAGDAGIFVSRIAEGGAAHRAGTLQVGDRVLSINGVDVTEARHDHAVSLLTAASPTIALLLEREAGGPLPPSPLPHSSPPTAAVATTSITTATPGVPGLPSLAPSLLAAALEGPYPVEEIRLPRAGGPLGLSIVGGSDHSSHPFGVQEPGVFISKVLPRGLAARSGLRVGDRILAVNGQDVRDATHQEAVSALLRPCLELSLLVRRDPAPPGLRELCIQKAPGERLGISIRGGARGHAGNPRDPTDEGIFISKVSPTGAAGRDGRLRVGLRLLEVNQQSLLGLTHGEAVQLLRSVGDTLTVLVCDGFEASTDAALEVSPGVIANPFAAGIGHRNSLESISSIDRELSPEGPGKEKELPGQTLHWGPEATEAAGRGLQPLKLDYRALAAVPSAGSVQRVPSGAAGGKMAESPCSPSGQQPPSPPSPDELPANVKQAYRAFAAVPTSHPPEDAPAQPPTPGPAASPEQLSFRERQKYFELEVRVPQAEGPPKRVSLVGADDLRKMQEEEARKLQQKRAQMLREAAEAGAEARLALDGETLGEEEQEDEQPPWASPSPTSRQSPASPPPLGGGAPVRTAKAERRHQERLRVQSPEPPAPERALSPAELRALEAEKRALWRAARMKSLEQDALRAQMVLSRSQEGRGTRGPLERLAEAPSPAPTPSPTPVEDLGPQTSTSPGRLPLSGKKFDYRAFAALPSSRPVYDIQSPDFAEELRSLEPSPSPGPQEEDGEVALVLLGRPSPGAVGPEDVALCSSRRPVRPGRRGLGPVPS
UniProt O70511: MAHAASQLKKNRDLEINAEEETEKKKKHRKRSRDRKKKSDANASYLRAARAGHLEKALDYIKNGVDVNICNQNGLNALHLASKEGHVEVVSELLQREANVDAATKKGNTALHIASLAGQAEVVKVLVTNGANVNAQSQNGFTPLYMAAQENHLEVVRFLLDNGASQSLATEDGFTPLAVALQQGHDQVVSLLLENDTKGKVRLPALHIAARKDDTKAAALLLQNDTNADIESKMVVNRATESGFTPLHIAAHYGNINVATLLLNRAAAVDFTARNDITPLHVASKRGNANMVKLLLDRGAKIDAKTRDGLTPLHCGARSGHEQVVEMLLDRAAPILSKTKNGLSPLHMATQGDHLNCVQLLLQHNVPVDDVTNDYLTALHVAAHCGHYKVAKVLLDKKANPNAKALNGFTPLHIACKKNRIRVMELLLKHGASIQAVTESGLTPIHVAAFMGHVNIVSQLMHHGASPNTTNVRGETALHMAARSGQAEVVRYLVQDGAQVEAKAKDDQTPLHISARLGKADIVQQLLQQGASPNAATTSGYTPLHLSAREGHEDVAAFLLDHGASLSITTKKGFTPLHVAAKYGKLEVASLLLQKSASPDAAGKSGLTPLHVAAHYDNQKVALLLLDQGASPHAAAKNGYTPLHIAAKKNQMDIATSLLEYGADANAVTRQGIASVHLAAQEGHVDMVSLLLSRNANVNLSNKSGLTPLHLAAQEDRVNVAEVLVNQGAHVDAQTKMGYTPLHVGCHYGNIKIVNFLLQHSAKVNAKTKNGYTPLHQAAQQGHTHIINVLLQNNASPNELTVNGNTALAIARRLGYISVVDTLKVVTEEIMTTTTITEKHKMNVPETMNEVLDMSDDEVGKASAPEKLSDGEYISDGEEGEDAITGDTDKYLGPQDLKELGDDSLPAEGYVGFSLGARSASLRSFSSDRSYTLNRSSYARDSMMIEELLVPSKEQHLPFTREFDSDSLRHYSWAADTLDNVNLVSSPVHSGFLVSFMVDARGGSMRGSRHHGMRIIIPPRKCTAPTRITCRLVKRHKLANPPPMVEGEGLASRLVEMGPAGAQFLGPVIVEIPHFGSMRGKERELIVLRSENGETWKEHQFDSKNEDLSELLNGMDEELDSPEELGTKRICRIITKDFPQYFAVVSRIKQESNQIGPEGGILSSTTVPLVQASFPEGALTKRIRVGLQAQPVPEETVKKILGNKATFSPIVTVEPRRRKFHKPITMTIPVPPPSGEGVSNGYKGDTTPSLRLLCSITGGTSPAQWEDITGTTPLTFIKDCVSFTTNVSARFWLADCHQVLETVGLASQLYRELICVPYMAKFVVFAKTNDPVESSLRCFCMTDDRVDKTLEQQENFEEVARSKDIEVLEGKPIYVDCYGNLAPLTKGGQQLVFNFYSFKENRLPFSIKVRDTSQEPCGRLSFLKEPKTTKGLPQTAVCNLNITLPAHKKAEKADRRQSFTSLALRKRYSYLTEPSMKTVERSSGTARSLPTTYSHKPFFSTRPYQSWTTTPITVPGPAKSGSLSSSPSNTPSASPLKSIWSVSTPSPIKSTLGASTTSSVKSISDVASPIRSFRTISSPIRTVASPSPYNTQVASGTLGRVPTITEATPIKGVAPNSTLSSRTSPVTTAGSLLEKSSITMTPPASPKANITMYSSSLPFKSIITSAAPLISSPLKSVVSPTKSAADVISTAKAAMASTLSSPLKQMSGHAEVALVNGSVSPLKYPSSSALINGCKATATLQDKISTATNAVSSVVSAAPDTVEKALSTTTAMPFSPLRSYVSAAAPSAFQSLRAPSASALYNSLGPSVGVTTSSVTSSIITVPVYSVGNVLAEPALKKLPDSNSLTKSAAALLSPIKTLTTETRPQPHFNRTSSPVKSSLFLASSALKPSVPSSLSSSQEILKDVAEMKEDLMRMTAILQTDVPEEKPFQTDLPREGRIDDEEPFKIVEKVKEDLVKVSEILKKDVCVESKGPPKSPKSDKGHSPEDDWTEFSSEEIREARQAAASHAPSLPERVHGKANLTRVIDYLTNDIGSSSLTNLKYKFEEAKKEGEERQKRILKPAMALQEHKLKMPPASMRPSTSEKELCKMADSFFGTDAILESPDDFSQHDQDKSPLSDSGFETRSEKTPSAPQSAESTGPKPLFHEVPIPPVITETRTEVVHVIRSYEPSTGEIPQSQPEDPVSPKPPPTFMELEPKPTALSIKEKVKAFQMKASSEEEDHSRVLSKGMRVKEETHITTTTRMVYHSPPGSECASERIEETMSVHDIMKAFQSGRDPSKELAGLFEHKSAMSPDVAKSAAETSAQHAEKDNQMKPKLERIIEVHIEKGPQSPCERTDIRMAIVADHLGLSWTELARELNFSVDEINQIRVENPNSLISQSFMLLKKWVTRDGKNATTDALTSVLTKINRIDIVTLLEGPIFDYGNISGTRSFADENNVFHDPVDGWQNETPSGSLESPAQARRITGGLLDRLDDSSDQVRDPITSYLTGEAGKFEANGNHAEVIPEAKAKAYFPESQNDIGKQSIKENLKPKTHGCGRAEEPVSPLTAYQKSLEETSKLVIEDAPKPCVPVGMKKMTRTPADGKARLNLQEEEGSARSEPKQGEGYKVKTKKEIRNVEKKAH

binding [1]	binding [2]	Substance
binds		AnkG270-EGFP (GFP-tagged AnkG) (from UniProt O70511-1 1-2622)
	binds	Scrib-Flag (flag-tagged SCRIB) (from UniProt Q14160 1-1655)

From PMC10713531
